According to paper PMC12022250:
No constants are given. Whether binding was seen depends on the method and setting. Binding seen in cells or lysates may run through a third protein. Some entries that bind do so weakly or less than the wild type.

Chains of the proteins cited; added tags and fusions are not shown.
UniProt P46937: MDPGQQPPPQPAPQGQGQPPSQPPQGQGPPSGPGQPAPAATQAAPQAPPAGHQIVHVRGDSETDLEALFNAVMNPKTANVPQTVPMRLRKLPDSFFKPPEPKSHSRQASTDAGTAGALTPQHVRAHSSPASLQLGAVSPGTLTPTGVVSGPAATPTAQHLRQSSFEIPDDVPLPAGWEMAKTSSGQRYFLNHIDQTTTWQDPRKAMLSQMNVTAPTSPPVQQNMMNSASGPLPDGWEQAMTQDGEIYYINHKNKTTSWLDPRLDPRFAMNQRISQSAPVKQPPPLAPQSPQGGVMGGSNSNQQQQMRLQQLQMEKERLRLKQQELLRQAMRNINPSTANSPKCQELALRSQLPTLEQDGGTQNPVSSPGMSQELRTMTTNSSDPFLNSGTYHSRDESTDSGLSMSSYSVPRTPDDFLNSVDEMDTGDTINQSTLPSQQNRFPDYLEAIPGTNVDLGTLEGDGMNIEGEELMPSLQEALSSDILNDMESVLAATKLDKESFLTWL
UniProt P35711: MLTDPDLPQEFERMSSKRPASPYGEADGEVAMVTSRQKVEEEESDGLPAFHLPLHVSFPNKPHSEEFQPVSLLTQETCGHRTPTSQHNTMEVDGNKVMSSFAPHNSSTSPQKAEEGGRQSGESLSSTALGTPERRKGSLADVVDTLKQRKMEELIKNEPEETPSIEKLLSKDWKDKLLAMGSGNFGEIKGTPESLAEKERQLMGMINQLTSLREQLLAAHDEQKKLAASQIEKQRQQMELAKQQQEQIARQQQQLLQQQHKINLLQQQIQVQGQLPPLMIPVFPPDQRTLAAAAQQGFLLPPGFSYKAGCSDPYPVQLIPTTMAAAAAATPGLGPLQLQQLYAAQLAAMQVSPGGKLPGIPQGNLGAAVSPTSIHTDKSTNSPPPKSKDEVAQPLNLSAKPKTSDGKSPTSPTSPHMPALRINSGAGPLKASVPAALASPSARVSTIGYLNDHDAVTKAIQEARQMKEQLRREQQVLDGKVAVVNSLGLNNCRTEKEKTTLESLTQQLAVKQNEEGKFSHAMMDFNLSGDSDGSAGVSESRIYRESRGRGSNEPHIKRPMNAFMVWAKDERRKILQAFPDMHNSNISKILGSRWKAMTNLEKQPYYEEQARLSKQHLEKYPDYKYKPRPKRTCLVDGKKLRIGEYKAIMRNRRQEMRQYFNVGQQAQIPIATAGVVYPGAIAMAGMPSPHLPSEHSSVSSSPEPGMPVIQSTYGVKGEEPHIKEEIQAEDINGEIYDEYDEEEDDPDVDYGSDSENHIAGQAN

Molecular target: yes-associated protein 1 (human (endogenous in BT-474-OR and SNU-251-OR)) (UniProt P46937)
Assay: co-IP; 1000 ug total lysate of BT-474-OR or SNU-251-OR cells in NETN buffer (250 mM NaCl, 5 mM Tris-HCl, 5 mM EDTA, 0.5% NP-40), precipitated with anti-YAP or anti-SOX5 antibody (1:50) overnight with Protein A/G beads; normal rabbit IgG as negative control; Western blot

## SRY-box transcription factor 5 (from UniProt P35711 1-763)
  binding: binds
